PubChem BioAssay AID504774, Drosophila RNAi Screening Center, 2011
Aim: 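Genes required for cells to withstand methyl methanesulphonate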 (primary screen). System: Drosophila Kc167 cells. Reagents: long dsRNA against Drosophila genes, about 0.25 µg dsRNA per well. Duration: about 6 days: 3 days knock-down, then 3 days with or without MMS. Challenge: methyl methanesulphonate 0.004% (w/v) for 3 days after knock-down. Measured: 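Viability in wells given MMS, read as ATP luminescence, normalised by quantiles plate by plate and averaged across replicates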. Reading the numbers: mean viability with MMS and viability with MMS: higher = more surviving cells after MMS.
The screen tested about 23,000 reagents; below is an unselected part of those with a known target gene and a result. 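Values are quantile-normalised luminescence on an arbitrary scale; higher means more cells surviving MMS.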 Further read-outs or replicates are left out here. Reagent sequences are not shown.

FASN1 [DRSC00268] | mean viability with MMS = 3.41e6; viability with MMS, replicate 1 = 3.61e6
CG14106 [DRSC10109] | mean viability with MMS = 3.52e6; viability with MMS, replicate 1 = 3.92e6
nompC [DRSC03581] | mean viability with MMS = 3.46e6; viability with MMS, replicate 1 = 4.06e6
Slh [DRSC00789] | mean viability with MMS = 3.55e6; viability with MMS, replicate 1 = 4.09e6
Cog3 [DRSC00585] | mean viability with MMS = 3.50e6; viability with MMS, replicate 1 = 3.85e6
CG18449 [DRSC06754] | mean viability with MMS = 3.52e6; viability with MMS, replicate 1 = 3.94e6
CG11155 [DRSC17184] | mean viability with MMS = 3.68e6; viability with MMS, replicate 1 = 4.04e6
CG11155 [DRSC17205] | mean viability with MMS = 3.56e6; viability with MMS, replicate 1 = 4.07e6
Tep5Psi [DRSC02183] | mean viability with MMS = 3.53e6; viability with MMS, replicate 1 = 4.01e6
Tep5Psi [DRSC02184] | mean viability with MMS = 3.57e6; viability with MMS, replicate 1 = 4.03e6
CG4860 [DRSC15664] | mean viability with MMS = 3.69e6; viability with MMS, replicate 1 = 4.08e6
CG4860 [DRSC21755] | mean viability with MMS = 3.36e6; viability with MMS, replicate 1 = 3.84e6
CG4854 [DRSC15663] | mean viability with MMS = 3.54e6; viability with MMS, replicate 1 = 4.17e6
yki [DRSC04437] | mean viability with MMS = 3.58e6; viability with MMS, replicate 1 = 3.95e6

Sorted by “viability with MMS, replicate 1” (descending): some entries from above.
CG4860 [DRSC15664] | mean viability with MMS = 3.69e6; viability with MMS, replicate 1 = 4.08e6
Tep5Psi [DRSC02184] | mean viability with MMS = 3.57e6; viability with MMS, replicate 1 = 4.03e6
